# Measurements from article PMC10779086, “3-O-Methyltolcapone and Its Lipophilic Analogues Are Potent Inhibitors of Transthyretin Amyloidogenesis with High Permeability and Low Toxicity” (International Journal of Molecular Sciences, 2023).
# System: HepG2 human liver cancer cell line
# Experiment: Cytotoxicity in HepG2 cells (ATP viability assay)
# Type: cell-based
# Details: 48 h
# Experimental: The human liver cancer cell line HepG2 (ATCC HB-8065) was cultured in MEM ATCC medium supplemented with 10% FBS (Euroclone CAT No. ECS0180D), 100 units/mL penicillin, and 100 ug/mL streptomycin sulphate (Euroclone CAT No. ECB3001). Cells were grown at 37 °C in an atmosphere of 5% CO2 and plated at 10,000 cells/well in a 96-well plate (Corning Cat. N. 3610). Compounds were dissolved at the concentration of 50 mM in DMSO.
# Cells were stimulated for 48 h at 37 °C with serial dilutions of the compounds at the following concentrations: 0.1, 1, 10, 50, 100, 200, 300, and 500 μM and dispensed with an HP Dispenser (Tecan), as triplicates for each concentration. DMSO normalisation at 1.0% was performed in each well. Lysis buffer was used as a positive control of dead cells with tamoxifen (Sigma-Aldrich CAT No. T5648).
# Cell viability was evaluated by measuring ATP levels using CellTiter Glo (Promega Cat.n. G7570) according to manufacturer’s instructions.
compound,measurement,value
"CC/C(=C(\c1ccccc1)c1ccc(OCCN(C)C)cc1)c1ccccc1 [Tamoxifen, tamoxifen, reference compound]",EC50,14 µM
